Laboratory results as given in publication PMC6364870.
Results are given in words; binding and its absence hold for the method and conditions named. Binding seen in cells or lysates may run through a third protein. These calls come from enrichment with a bait or labelling near it, and not all partners need be listed.

Chains of the proteins cited; added tags and fusions are not shown.
UniProt Q9QVP9: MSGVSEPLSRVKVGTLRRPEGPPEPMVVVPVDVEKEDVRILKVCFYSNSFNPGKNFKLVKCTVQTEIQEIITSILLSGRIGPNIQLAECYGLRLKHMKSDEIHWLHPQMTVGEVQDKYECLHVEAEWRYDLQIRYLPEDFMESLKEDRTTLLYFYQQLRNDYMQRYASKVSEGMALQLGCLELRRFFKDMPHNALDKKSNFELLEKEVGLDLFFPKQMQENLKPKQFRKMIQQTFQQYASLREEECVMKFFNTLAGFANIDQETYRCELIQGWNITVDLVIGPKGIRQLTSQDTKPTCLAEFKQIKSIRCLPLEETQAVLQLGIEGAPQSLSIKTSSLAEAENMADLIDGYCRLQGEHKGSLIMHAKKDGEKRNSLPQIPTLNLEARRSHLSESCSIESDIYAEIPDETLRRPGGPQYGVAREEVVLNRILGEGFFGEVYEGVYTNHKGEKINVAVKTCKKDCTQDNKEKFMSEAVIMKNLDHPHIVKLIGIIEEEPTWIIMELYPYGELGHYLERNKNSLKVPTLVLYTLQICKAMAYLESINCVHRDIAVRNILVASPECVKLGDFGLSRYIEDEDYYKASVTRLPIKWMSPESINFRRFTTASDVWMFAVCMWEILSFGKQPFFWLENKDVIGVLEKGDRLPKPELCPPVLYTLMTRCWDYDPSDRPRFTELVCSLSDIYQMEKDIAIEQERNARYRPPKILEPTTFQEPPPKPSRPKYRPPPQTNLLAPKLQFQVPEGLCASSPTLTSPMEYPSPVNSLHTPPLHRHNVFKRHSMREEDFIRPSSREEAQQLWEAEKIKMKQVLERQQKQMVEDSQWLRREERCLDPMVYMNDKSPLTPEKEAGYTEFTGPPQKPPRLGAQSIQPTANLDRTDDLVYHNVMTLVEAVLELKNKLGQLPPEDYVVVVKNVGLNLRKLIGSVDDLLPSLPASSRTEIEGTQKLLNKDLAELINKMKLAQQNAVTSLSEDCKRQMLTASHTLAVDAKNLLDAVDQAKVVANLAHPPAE
UniProt Q8K019: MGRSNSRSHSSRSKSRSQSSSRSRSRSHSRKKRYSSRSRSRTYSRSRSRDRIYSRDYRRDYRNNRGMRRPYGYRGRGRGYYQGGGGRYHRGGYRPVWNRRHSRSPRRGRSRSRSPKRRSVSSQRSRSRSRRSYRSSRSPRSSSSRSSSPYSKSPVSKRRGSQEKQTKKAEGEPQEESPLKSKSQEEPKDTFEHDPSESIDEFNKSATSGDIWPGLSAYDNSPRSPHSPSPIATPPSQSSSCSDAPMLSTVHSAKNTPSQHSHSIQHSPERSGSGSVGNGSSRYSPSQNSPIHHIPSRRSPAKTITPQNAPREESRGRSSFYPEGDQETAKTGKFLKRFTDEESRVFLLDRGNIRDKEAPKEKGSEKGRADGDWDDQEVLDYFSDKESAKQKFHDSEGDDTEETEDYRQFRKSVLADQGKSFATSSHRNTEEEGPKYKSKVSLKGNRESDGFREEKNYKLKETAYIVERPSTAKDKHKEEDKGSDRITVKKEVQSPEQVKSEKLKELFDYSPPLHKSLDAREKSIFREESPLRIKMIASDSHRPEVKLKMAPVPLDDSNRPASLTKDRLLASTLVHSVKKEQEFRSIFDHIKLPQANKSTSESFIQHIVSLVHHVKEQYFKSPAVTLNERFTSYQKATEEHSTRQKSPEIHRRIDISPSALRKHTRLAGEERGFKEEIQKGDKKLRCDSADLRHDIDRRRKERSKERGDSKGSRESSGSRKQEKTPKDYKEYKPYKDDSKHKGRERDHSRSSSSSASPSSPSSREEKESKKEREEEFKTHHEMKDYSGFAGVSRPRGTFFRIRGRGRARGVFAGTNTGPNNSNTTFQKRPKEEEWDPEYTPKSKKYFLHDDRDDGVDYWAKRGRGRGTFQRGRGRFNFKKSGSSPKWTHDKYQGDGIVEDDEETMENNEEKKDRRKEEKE
UniProt P11531: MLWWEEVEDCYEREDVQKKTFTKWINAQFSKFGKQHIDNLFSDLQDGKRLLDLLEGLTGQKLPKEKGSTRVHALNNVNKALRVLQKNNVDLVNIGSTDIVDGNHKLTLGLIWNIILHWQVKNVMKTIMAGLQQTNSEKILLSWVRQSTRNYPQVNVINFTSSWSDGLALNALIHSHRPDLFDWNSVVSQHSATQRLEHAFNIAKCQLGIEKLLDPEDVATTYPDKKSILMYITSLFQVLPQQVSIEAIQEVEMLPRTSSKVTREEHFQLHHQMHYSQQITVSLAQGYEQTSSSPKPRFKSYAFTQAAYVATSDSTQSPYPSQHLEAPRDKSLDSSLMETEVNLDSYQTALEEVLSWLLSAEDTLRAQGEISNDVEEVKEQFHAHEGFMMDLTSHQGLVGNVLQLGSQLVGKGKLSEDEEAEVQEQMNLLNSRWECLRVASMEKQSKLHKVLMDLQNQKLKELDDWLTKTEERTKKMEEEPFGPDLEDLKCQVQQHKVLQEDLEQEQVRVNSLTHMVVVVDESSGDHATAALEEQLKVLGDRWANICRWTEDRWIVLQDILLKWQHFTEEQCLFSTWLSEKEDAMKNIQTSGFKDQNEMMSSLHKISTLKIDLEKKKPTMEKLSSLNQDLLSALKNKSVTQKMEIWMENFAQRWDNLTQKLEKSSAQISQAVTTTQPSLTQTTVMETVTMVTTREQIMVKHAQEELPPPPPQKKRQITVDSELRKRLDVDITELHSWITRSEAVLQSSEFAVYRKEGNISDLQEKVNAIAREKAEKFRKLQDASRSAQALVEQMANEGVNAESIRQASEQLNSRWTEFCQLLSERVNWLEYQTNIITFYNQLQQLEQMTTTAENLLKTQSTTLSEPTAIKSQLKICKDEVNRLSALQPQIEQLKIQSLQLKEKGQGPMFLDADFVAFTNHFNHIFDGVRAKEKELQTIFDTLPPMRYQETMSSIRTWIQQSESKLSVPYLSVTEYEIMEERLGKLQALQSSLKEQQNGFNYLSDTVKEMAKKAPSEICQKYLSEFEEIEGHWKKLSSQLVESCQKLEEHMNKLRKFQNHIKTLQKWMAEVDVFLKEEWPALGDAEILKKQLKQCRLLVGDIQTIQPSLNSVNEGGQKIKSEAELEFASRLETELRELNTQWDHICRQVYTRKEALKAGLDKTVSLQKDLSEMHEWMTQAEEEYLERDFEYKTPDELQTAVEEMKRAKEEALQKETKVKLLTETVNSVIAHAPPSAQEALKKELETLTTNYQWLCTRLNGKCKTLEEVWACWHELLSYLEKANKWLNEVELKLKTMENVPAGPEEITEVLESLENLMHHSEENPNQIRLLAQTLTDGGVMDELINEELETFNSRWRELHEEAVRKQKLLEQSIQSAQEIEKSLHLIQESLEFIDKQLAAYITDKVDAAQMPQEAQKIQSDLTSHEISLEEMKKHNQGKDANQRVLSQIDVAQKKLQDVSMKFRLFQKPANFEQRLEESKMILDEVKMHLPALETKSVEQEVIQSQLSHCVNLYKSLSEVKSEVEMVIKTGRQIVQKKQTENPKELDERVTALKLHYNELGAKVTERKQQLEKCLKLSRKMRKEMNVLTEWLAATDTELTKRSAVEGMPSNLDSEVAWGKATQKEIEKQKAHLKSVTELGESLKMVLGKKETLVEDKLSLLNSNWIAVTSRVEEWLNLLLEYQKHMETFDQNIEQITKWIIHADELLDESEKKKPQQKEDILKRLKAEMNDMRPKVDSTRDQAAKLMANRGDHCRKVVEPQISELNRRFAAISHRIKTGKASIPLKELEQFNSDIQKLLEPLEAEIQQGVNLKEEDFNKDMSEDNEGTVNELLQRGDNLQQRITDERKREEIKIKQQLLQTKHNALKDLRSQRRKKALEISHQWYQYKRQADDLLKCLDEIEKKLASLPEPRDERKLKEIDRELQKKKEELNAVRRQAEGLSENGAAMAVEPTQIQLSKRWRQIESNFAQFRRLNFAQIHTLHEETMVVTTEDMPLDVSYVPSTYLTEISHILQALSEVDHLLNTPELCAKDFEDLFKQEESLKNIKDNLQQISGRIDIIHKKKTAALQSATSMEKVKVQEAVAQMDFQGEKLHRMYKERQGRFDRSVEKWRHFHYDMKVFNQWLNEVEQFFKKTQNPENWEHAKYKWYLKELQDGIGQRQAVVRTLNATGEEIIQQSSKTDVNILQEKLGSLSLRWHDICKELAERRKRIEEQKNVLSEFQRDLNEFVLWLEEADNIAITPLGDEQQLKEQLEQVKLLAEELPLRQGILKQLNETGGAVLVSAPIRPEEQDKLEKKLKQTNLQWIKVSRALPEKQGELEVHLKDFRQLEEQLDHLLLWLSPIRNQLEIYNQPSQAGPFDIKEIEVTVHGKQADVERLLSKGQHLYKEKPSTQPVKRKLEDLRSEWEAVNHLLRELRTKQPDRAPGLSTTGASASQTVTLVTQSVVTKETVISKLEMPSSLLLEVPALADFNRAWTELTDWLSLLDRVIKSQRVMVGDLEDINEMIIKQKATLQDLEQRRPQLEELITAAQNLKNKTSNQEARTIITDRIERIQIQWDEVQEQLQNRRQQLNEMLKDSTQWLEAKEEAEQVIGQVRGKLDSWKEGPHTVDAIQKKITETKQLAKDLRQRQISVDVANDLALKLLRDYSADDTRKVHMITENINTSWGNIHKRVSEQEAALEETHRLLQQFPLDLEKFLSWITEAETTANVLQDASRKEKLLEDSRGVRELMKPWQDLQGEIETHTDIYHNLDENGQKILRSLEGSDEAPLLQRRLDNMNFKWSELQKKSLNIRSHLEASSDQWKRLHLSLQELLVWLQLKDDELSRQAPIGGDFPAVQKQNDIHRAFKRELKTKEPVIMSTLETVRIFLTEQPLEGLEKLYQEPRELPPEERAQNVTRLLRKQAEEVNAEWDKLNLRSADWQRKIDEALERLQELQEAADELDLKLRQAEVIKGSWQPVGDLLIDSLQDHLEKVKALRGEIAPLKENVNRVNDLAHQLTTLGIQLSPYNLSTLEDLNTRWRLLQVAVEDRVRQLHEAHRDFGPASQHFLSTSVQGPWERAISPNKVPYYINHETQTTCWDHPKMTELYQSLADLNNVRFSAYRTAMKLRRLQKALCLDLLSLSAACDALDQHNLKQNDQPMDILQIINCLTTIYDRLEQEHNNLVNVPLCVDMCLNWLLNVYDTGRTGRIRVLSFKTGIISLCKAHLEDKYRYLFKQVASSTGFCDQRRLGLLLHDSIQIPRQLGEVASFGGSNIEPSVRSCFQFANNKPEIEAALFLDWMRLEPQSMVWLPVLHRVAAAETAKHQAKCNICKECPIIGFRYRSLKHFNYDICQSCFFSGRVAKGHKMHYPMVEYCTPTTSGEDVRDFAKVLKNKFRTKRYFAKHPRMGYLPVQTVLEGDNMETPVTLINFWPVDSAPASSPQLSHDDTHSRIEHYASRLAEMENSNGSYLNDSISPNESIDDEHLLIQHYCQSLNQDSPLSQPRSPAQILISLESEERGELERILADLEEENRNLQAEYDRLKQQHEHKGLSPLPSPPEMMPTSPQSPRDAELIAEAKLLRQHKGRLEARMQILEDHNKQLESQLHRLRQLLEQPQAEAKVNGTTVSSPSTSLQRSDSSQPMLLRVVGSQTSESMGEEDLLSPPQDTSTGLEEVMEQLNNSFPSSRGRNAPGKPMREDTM
UniProt D3YXK2: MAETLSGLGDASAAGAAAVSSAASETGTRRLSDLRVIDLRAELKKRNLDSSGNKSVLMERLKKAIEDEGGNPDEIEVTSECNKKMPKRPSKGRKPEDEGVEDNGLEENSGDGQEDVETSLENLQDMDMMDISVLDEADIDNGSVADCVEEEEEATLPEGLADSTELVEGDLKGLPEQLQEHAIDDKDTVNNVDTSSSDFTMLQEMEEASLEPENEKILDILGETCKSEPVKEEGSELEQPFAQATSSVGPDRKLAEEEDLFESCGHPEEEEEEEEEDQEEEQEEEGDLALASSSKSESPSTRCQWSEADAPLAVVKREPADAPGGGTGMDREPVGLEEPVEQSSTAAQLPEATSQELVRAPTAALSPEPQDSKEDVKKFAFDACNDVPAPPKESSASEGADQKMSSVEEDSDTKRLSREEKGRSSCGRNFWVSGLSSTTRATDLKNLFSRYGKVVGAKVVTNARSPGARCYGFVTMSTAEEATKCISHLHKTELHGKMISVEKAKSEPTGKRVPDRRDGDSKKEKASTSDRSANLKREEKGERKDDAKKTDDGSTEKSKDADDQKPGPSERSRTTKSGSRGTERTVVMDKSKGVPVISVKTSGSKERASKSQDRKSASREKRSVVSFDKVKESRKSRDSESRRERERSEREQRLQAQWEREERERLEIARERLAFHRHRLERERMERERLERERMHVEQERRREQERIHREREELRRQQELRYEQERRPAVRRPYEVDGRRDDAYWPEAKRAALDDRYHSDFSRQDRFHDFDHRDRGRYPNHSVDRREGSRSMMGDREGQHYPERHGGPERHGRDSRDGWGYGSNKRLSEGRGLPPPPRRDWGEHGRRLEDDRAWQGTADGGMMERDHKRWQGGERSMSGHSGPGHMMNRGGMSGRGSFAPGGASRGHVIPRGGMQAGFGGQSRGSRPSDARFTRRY

T1: SATB2 (mouse (endogenous in cortex)) (UniProt Q8VI24)
T1 sequence: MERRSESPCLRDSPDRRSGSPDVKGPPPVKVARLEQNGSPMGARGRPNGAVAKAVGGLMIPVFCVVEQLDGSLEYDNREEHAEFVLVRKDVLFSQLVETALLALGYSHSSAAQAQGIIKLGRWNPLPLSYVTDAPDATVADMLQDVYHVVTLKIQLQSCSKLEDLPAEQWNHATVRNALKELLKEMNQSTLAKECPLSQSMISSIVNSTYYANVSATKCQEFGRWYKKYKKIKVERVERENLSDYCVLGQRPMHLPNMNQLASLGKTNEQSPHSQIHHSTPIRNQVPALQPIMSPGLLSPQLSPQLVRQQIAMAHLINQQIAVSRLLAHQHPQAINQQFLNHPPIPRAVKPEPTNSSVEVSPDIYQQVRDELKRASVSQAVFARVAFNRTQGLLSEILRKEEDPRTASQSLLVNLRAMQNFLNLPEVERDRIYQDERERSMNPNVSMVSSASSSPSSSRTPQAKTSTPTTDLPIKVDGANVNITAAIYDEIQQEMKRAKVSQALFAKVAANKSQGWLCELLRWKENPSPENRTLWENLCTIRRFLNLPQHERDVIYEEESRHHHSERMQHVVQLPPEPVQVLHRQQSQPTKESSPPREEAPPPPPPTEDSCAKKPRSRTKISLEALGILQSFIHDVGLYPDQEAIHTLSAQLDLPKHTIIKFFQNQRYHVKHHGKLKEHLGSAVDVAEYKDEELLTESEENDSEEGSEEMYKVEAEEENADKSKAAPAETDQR

B1: CHMP3 (protein, UniProt Q9CQ10 1-224)
chain: MGLFGKTQEKPPKELVNEWSLKIRKEMRVVDRQIRDIQREEEKVKRSVKDAAKKGQKEVCVVLAKEMIRSRKAVSKLYASKAHMNSVLMGMKNQLAVLRVAGSLQKSTEVMKAMQSLVKIPEIQATMRELSKEMMKAGIIEEMLEDTFESMDDQEEMEEAAEMEIDRILFEITAGALGKAPSKVTDALPEPEPAGAMAASEEGEEEEDEEDLEAMQSRLATLRS
B2: FMN1 (protein, UniProt Q05860 1-1466)
chain: MEGTHCTLQLHNPIAELCYISFYLPKGEVRGFSYKGTVTLDRSNNAFHNCYQVREGPDITSLSQQPNEHPGDIFFKQTPTKNILTELYKLTAEKERLLDSLLRSDNILGVSMGSQEGKLQELSVILATGDEYFQSAGNWRRELPVSSLIRRSTQENKKPRRSGRRRESPEELRQKRTRRKGRGCQESAFQMGKDQVCSSSSLSFRARPNLRLLEERGNLVPRGTLTSSLRRRESCPANILRTPDADLAFGNSGRTSEDTDLEGPLSPDSSPTEVGDADVGGQLKSSHQQEPPQPNVSESHGKHAGAERWSSRTRKSKSLERTCSKKPVSKVVAKIQEPSAPVKRIVRAHHDGKGRVAYGPETQTEFIPKADFLTLPGGETETHSSGRLEEEQPGIKSLRSSAPERASITKEPASTEAAVNKVLRKVIESEKLDEATEGKRLGFSLNTRATHTFPETRSQRKAGLPQSGHKFLLLDLPHTVGPDSPQPKCDEKKPTPQVPTALGMVFNNSSPQSSAHKRLSPVPSPLSPRCPSPQQHHRILLLPPLPSEGEVVFNEYPSRKNDVSSGFPSADTLEPSSTTKVTETKGASPTSLRASQTWLVSEEASEKGLGPEKITAPPQHQLPPGIASEGFPCDNFKEQTAKDLPNKDGGVWVPGYRAGPPCPFLLHEEKEKTSRSELYLDLNPDQSPTEQDDRTPGRLQAVWPPPKTKDTEEKVGLKYTEAEYQAAILHLKREHKEEIETLQAQFELKTFHIRGEHALVTARLEEAIENLKQQLGKRREGCEEMRDVCISTDDDCSPKAFRNVCIQTDRETFLKPCDAESKATRSSQIVPKKLTISLTQLSPSKDSKDIHAPFQTREGTSSSSQHKISPPAPPTPPPLPPPLIPPPPPLPPGLGPLPPAPPIPPVCPVSPPPPPPPPPPTPVPPSDGPPPPPPPPPPLPNVLALPNSGGPPPPPPPPPPGLAPPPPPGLSFGLSSSSSQYPRKPAIEPSCPMKPLYWTRIQINDKSQDAAPTLWDSLEEPHIRDTSEFEYLFSKDTTQQKKKPLSEAYEKKNKVKKIIKLLDGKRSQTVGILISSLHLEMKDIQQAIFTVDDSVVDLETLAALYENRAQEDELTKIRKYYETSKEEDLKLLDKPEQFLHELAQIPNFAERAQCIIFRAVFSEGITSLHRKVEIVTRASKGLLHMKSVKDILALILAFGNYMNGGNRTRGQADGYSLEILPKLKDVKSRDNGMNLVDYVVKYYLRYYDQCKHHDQEASCRGKDLFSLYFHIAVHPQRKSGLELKQEAGTDKSVFPLPEPQDFFLASQVKFEDLLKDLRKLKRQLEASEQQMKLVCKESPREYLQPFKDKLEEFFKKAKKEHKMEESHLENAQKSFETTVGYFGMKPKTGEKEVTPSYVFMVWFEFCSDFKTIWKRESKNISKERLKMAQASVSKLTSEKKVETKKINPTASLKERLRQKEASVATN
B3: TSC22D4 (protein, UniProt Q9EQN3 1-387)
chain: MSGGKKKSSFQITSVTTDYEGPGSPGASDSPVPPALAGPPPRLPNGDPNPDPGGRGTPRNGSPPPGAPASRFRVVKLPQGLGEPYRRGRWTCVDVYERDLEPPSFGRLLEGIRGASGGTGGRSLDSRLELASLGISTPIPQPGLSQGPTSWLRPPPTSPGPQARSFTGGLGQLAGPGKAKVETPPLSASPPQQRPPGPGTGDSAQTLPSLRVEVESGGSAAATPPLSRRRDGAVRLRMELVAPAETGKVPPTDSRPNSPALYFDASLVHKSPDPFGAAAAQSLSLARSMLAISGHLDSDDDSGSGSLVGIDNKIEQAMDLVKSHLMFAVREEVEVLKEQIRDLAERNAALEQENGLLRALASPEQLAQLPSSGLPRLGPSAPNGPSI
B4: Lamin B1 (protein, UniProt P14733 1-588)
chain: MATATPVQQQRAGSRASAPATPLSPTRLSRLQEKEELRELNDRLAVYIDKVRSLETENSALQLQVTEREEVRGRELTGLKALYETELADARRALDDTARERAKLQIELGKFKAEHDQLLLNYAKKESDLSGAQIKLREYEAALNSKDAALATALGDKKSLEGDLEDLKDQIAQLEASLSAAKKQLADETLLKVDLENRCQSLTEDLEFRKNMYEEEINETRRKHETRLVEVDSGRQIEYEYKLAQALHEMREQHDAQVRLYKEELEQTYHAKLENARLSSEMNTSTVNSAREELMESRMRIESLSSQLSNLQKESRACLERIQELEDMLAKERDNSRRMLSDREREMAEIRDQMQQQLSDYEQLLDVKLALDMEISAYRKLLEGEEERLKLSPSPSSRVTVSRASSSRSVRTTRGKRKRVDVEESEASSSVSISHSASATGNVCIEEIDVDGKFIRLKNTSEQDQPMGGWEMIRKIGDTSVSYKYTSRYVLKAGQTVTVWAANAGVTASPPTDLIWKNQNSWGTGEDVKVILKNSQGEEVAQRSTVFKTTIPEEEEEEEEEPIGVAVEEERFHQQGAPRASNKSCAIM
B5: Lamin B2 (protein, UniProt P21619 1-596)
chain: MASLPPHAGPATPLSPTRLSRLQEKEELRELNDRLAHYIDRVRALELENDRLLLRISEKEEVTTREVSGIKTLYESELADARRVLDETARERARLQIEIGKVQAELEEARKSAKKREGELTVAQGRVKDLESLFHRSEAELATALSDKQGLETEVAELRAQLAKAEDGHAVAKKQLEKETLMRVDLENRCQSLQEELAFSKSVFEEEVRETRRRHERRLVEVDSSRQQEYDFKMAQALEDLRSQHDEQVRLYRVELEQTYQAKLDNAKLLSDQNDKAAHAAREELKEARMRVESLSYQLLGLQKQASAAENHIHELEEALAGERDKFRKMLDAKEQEMTEVRDAMQQQLAEYQELLDIKLALDMEISAYRKLLEGEEERLKLSPSPSSRITISRATSSSSSSSGVGMSVGQGRGKRRRLETEDTSGSPSRASRVSSGSRLAQQTVATGVVNIDEVDPEGRFVRLKNSSDKDQSLGNWRIKRQVLEGEDIAYKFTPKYVLRAGQTVTVWAAGAGATHSPPSTLVWKSQTNWGPGESFRTALVSADGEEVAVKAAKHSSVQGRENGEEEEEEEAEFGEEDLFHQQGDPRTTSRGCRLM
B6: NOP58 (protein, UniProt Q6DFW4 1-536)
chain: MLVLFETSVGYAIFKVLNEKKLQEVDSLWKEFETPEKANKIVKLKHFEKFQDTAEALAAFTALMEGKINKQLKKVLKKIVKEAHEPLAVADAKLGGVIKEKLNLSCIHSPVVNELMRGIRSQMDGLIPGVEPREMAAMCLGLAHSLSRYRLKFSADKVDTMIVQAISLLDDLDKELNNYIMRCREWYGWHFPELGKIISDNLTYCKCLQKVGDRKNYASASLSEFLSEEVEAEVKAAAEISMGTEVSEEDICNILHLCTQVIEISEYRTQLYEYLQNRMMAIAPNVTVMVGELVGARLIAHAGSLLNLAKHAASTVQILGAEKALFRALKSRRDTPKYGLIYHASLVGQSSPKHKGKISRMLAAKTVLAIRYDAFGEDSSSAMGIENRAKLEARLRILEDRGIRKISGTGKALAKAEKYEHKSEVKTYDPSGDSTLPTCSKKRKIEEVDKEDEITEKKAKKAKIKIKAEVEEEMEEEEAEEEQVVEEEPTVKKKKKKDKKKHIKEEPLSEEEPCTSTAVPSPEKKKKKKKKKDAED
B7: NHP2L1 (protein, UniProt Q9D0T1 1-128)
chain: MTEADVNPKAYPLADAHLTKKLLDLVQQSCNYKQLRKGANEATKTLNRGISEFIVMAADAEPLEIILHLPLLCEDKNVPYVFVRSKQALGRACGVSRPVIACSVTIKEGSQLKQQIQSIQQSIERLLV
B8: DKC1 (protein, UniProt Q9ESX5 1-509)
chain: MADAEVITFPKKHKKKKDRKPLQEDDVAEIQHAEEFLIKPESKVAQLDTSQWPLLLKNFDKLNVRTAHYTPLPCGSNPLKREIGDYIRTGFINLDKPSNPSSHEVVAWIRRILRVEKTGHSGTLDPKVTGCLIVCIERATRLVKSQQSAGKEYVGIVRLHNAIEGGTQLSRALETLTGALFQRPPLIAAVKRQLRVRTIYESKMIEYDPERRLGIFWVSCEAGTYIRTLCVHLGLLLGVGGQMQELRRVRSGVMSEKDHMVTMHDVLDAQWLYDNHKDESYLRRVVYPLEKLLTSHKRLVMKDSAVNAICYGAKIMLPGLLRYEDGIEVNQEIVVITTKGEAICMAIALMTTAVISTCDHGIVAKIKRVIMERDTYPRKWGLGPKASQKKMMIKQGLLDKHGKPTDNTPATWKQDYIDYSDSGKNTLVTEAVQAPQLAAEAVNVIKRKRDSESESDETPTVPQLKEKKKKKDKKPKTVLESGGETGDGDNDTTKKKKKKKVKVVEEMSE
B9: FBL (protein, UniProt P35550 1-327)
chain: MKPGFSPRGGGFGGRGGFGDRGGRGGGRGGRGGFGGGRGGFGGGGRGRGGGGGGFRGRGGGGGRGGGFQSGGNRGRGGGRGGKRGNQSGKNVMVEPHRHEGVFICRGKEDALVTKNLVPGESVYGEKRVSISEGDDKIEYRAWNPFRSKLAAAILGGVDQIHIKPGAKVLYLGAASGTTVSHVSDIVGPDGLVYAVEFSHRSGRDLINLAKKRTNIIPVIEDARHPHKYRMLIAMVDVIFADVAQPDQTRIVALNAHTFLRNGGHFVISIKANCIDSTASAEAVFASEVKKMQQENMKPQEQLTLEPYERDHAVVVGVYRPPPKVKN

Experiments:
[1] = target: T1, SATB2 (mouse (endogenous in cortex)); assay: affinity purification with mass spectrometry; endogenous SATB2 precipitated with anti-SATB2 on protein G Dynabeads from adult (three month-old) mouse cortical lysate (1 mg total protein, overnight 4°C; 25 mM Tris/HCl pH 7.4, 150 mM NaCl, 1% NP-40, 1 mM EDTA, 5% glycerol); Satb2 knock-out lysate as negative control; LC-MS
[2] = target: T1, SATB2 (mouse (endogenous in cortex)); assay: affinity purification with mass spectrometry; endogenous SATB2 precipitated with anti-SATB2 on protein G Dynabeads from neonatal mouse cortical lysate (1 mg total protein, overnight 4°C; 25 mM Tris/HCl pH 7.4, 150 mM NaCl, 1% NP-40, 1 mM EDTA, 5% glycerol); Satb2 knock-out lysate as negative …; LC-MS

| Molecule | binding [1] | binding [2] |
| --- | --- | --- |
| PTK2B (from UniProt Q9QVP9 1-1009) | binds | – |
| BCLAF1 (from UniProt Q8K019 1-919) | binds | – |
| DMD (from UniProt P11531 1-3678) | binds | – |
| scaffold attachment factor B1 (SAFB1) (from UniProt D3YXK2 1-937) | binds | – |
| HNRNPU-like 2 (from UniProt Q00PI9 1-745) | binds | – |
| B1 | binds | – |
| B2 | binds | – |
| B3 | binds | – |
| B4 | binds | – |
| B5 | binds | – |
| B6 | – | binds |
| B7 | – | binds |
| B8 | – | binds |
| B9 | – | binds |
